Results reported in publication PMC11476549.
These are yes or no findings as the source states them, for the method shown. Binding seen in cells or lysates may run through a third protein. Some entries that bind do so weakly or less than the wild type.

Protein sequences, listed by entry. Tags and fused reporters are not part of them. Lines headed by an entry give the natural chain unless they say otherwise; changes in a name come on top.
UniProt Q9UPY5: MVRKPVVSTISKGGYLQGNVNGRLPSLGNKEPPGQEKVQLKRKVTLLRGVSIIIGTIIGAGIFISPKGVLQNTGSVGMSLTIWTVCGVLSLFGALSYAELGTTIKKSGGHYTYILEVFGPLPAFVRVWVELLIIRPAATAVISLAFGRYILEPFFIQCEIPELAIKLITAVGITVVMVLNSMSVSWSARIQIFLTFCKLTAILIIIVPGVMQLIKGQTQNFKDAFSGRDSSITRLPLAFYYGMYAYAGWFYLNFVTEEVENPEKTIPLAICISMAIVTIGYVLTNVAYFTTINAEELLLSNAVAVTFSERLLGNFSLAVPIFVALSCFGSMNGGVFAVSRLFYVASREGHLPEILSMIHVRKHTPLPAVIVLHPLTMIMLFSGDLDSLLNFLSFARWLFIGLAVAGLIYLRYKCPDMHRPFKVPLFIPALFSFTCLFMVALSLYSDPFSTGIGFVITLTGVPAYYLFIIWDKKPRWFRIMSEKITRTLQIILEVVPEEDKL

Columns and labels:
Assay in all cases: co-IP; myc-xCT (WT or mutant) precipitated with anti-c-Myc magnetic beads from lysates of COS-7 cells co-transfected with HA-4F2HC; lysis buffer 25 mM Tris, 0.15 M NaCl, 1 mM EDTA, 1% NP40, 5% glycerol, pH 7.4; 30 min at room temperature; blot probed with anti-HA
[1] = biological target: myc-K473Q xCT (SLC7A11), human (human) (UniProt Q9UPY5)
[2] = biological target: myc-K473R xCT (SLC7A11), human (human) (UniProt Q9UPY5)
[3] = biological target: myc-N314Q xCT (SLC7A11), human (human) (UniProt Q9UPY5)
[4] = biological target: myc-wildtype xCT (SLC7A11), human (human) (UniProt Q9UPY5)

Measured: binding

HA-4F2HC (SLC3A2, CD98), human (from UniProt P08195 1-529)
binds: all assays above
